Literature values in US20120164203A1, “PROCESS FOR PREPARATION OF STABLE, MICROENCAPSULATED AND SUSTAINED RELEASE BIOCIDAL ACTIVES AND COMPOSITION THEREOF” (priority 2009, published 2012).
Some results were stated once for a whole list of compounds, not compound by compound. For at least one compound, name, drawing or mass did not settle the structure.

Conditions: 25° C., near atmospheric pressure; cited from earlier work

| SMILES | solubility in pure water [µg/mL] |
| --- | --- |
| CCCCNC(=O)OCC#CI [Non-encapsulated IPBC, 3-iodo-2-propargyl butyl carbamate] | ≥ 100 |
| COC(=O)Nc1nc2ccccc2[nH]1 [cabendazim] | ≥ 100 |
| CN(C)C(=O)Nc1ccc(Cl)c(Cl)c1 [Non-encapsulated Diuron, Diuron] | ≥ 100 |
